Values quoted from earlier work in US20070021438A1, “Itraconazole solution” (priority 2003, published 2007).

Question: Which solubility in water does the source give for `CCC(C)n1ncn(-c2ccc(N3CCN(c4ccc(OCC5COC(Cn6cncn6)(c6ccc(Cl)cc6Cl)O5)cc4)CC3)cc2)c1=O` (stereo not shown) [Itraconazole] here?
Answer: The solubility in water was “practically insoluble”.
